# Laboratory results: PubChem BioAssay AID504467 (National Center for Advancing Translational Sciences (NCATS), 2011)
# Hit rate of the full screen: of about 330,000 compounds, about 7,700 (2.3%) were called active. The shares of active, inactive and inconclusive entries below differ from those in the screen. The call rests on the fitted dose curve; in most records, active means well fitted inhibition curve with a large enough effect; inconclusive means small, poorly fitted or top-dose-only effect, or effect the other way; inactive means flat fitted curve, though single readings scatter. Where the call is inconclusive, the potency comes from a doubtful curve fit.
# Experiment: qHTS screen for small molecules that inhibit ELG1-dependent DNA repair in human embryonic kidney (HEK293T) cells expressing luciferase-tagged ELG1; further: nearly all actives have a fitted effect of over 55% in size
# Conditions: HEK293T ELG1-luciferase reporter, luminescence, 16 h, DNA damage induced by 5-fluorouridine; series mostly up to 46.1 µM
# Outline: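 Cells (2,000 per well) received 5-fluorouridine plus test compound or DMSO and were incubated 16 hr at 37 °C, 5% CO2. Luciferase activity was read by luminescence 30 min after ONE-Glo addition; signal suppression marked inhibition of damage-induced ELG1 function.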
# Potency means the concentration at half of the fitted maximal effect.
row,SMILES,Potency
1,Cc1ccccc1CC(=O)N1CCCC(CCC(=O)N2CCN(c3ccccn3)CC2)C1 (stereo not given),"inconclusive: 20.6 µM [inhibitor, single point]"
2,Cc1cccc(NC(=O)c2cccc(C(F)(F)F)c2)c1,"inconclusive: 16.4 µM [activator, partial curve]"
3,Cc1cccc(-c2nnc(SCC(=O)Nc3nc4c(s3)CCCC4)n2C)c1,"inconclusive: 23.1 µM [inhibitor, single point]"
4,COc1cccc(/C=N/n2c(SC)nnc2-c2ccccc2)c1O,inactive
5,CCCOC(=O)c1ccc(Oc2c(-c3ccc(OCC)cc3O)n[nH]c2C)cc1,"inconclusive: 29.1 µM [inhibitor, single point]"
6,Cc1ccc(/C=C/C(=O)c2c(C)cc(C)[nH]c2=O)cc1,active: 20.6 µM
7,CCCCN(c1ccccc1)c1ncnc(N)c1[N+](=O)[O-],active: 2.59 µM
8,CN(C)c1ccc(P(=O)(OC2CCCCC2)C(O)c2ccccn2)cc1 (stereo not given),inactive
9,COc1ccc2c(c1)c(CC(=O)Nc1cc(C)ccc1C)c(C)n2C(=O)c1ccc(Cl)cc1,"inconclusive: 23.1 µM [inhibitor, single point]"
10,O=C(CNC(=O)c1ccccc1F)N/N=C/c1ccco1,"inconclusive: 9.2 µM [activator, partial curve]"
11,Cc1ccc(-n2nnnc2SCC(=O)Nc2cccc(NC(=O)c3ccco3)c2)cc1C,"inconclusive: 29.1 µM [inhibitor, single point]"
12,O=C(NCc1ccc(Cl)cc1)N1CCN(Cc2ccccc2)CC1,"inconclusive: 31.6 µM [inhibitor, single point]"
13,COc1ccc(-c2cn(Cc3ccc(C(=O)c4ccccc4)cc3)nn2)cc1,"inconclusive: 13 µM [activator, partial curve]"
14,Cc1ccc([N+](=O)[O-])cc1S(=O)(=O)N1CCN(C)CC1,inactive
15,O=C(N/N=C/c1cc([N+](=O)[O-])cc(Br)c1O)C12CC3CCC(CC(C3)C1)C2,active: 23.1 µM
16,Cc1cc(N2CCOCC2)ccc1/C=C1\NC(=O)N(CC(=O)Nc2ccc(F)cc2)C1=O,"inconclusive: 23.1 µM [activator, partial curve, poor fit]"
17,COc1ccc(C(=O)Cc2cc3cccc(OC)c3oc2=O)cc1,"inconclusive: 14.6 µM [activator, partial curve]"
18,O=C(Nc1ccccc1F)C(=Cc1sc(N2CCOCC2)nc1-c1ccccc1)C(=O)Nc1ccccc1F,active: 8.2 µM
19,C=CCOc1cccc(C(=O)N2CCCC(CCC(=O)NCc3ccccc3F)C2)c1 (stereo not given),"inconclusive: 20.6 µM [inhibitor, single point]"
20,O=C(COC(=O)c1cc2ccccc2oc1=O)Nc1ccc(F)cc1F,"inconclusive: 14.6 µM [activator, partial curve]"
21,Cc1nc(CC(=O)Nc2nc(-c3ccccc3)cs2)cs1,"inconclusive: 23.1 µM [activator, partial curve, poor fit]"
22,CCOc1ccc2[nH]c(C(=O)N/N=C/c3ccccc3OC)cc2c1,"inconclusive: 2.59 µM [inhibitor, full curve]"
23,Cc1ccc(C)c(N(CC(=O)NCc2ccco2)C(=O)CCC(=O)Nc2nccs2)c1,inactive
24,Cc1cc(=O)[nH]c(SCC(=O)NCC2CCCO2)n1 (stereo not given),"inconclusive: 29.1 µM [inhibitor, single point]"

row,SMILES,Potency
1,COc1ccc([C@@H]2[C@@H]3C(=O)N(C(C)(C)C)C(=O)[C@@H]3[C@]3(Cc4ccc(Cl)cc4)C(=O)N(c4ccc(OC)cc4)C(=O)N23)cc1,"inconclusive: 28.2 µM [activator, single point]"
2,COc1ccc(S(=O)(=O)N2CCCCCC2)cc1C(=O)N(C)CC(=O)Nc1ccccc1Cl,inactive
3,CC(=O)Nc1sc2c(c1C#N)CCC2,"inconclusive: 29.1 µM [activator, single point]"
4,COc1ccc(Cl)cc1NC(=O)c1ccccc1C,"inconclusive: 16.4 µM [activator, single point]"
5,COCC(=O)Nc1nnc(C2CCCCC2)s1,"inconclusive: 23.1 µM [activator, partial curve, poor fit]"
6,Cc1ccc(S(C)(=O)=O)cc1C(=O)NC(C)C1CC2CCC1C2 (stereo not given),inactive
7,CCCCn1c(N)c(N(CCC(C)C)C(=O)COC(=O)c2ccc([N+](=O)[O-])s2)c(=O)[nH]c1=O,"inconclusive: 23.1 µM [inhibitor, single point]"
8,CN(C)C(=S)SCC(=O)Nc1ccc(Cl)cc1Cl,"inconclusive: 20.6 µM [activator, partial curve]"
9,Cc1ccc(-n2nc3ccc(NC(=S)NC(=O)/C=C/c4ccco4)cc3n2)cc1,"inconclusive: 14.6 µM [activator, partial curve]"
10,COc1ccc(Nc2nc(Cl)nc(N3CCN(c4ccc(OC)cc4)CC3)n2)cc1,inactive
11,CCN1CCc2c(OCC(=O)N3CCCc4ccccc43)cccc2C1=O,"inconclusive: 18.3 µM [inhibitor, single point]"
12,CC(=O)/C(C#N)=C1\NC(=O)C(Cc2ccccc2)S1 (stereo not given),inactive
13,COc1ccccc1N1CCN(C2CCCCC2NS(=O)(=O)c2ccc(Cl)cc2)CC1 (stereo not given),"inconclusive: 18.3 µM [inhibitor, single point]"
14,COCC1CCN(C(=O)C2CCC(=O)N(Cc3cccc(C(F)(F)F)c3)C2)CC1 (stereo not given),"inconclusive: 0.058 µM [inhibitor, partial curve, poor fit]"
15,CCOC(=O)C1=C(C)N(CCCC(=O)O)C(=O)NC1c1ccc(Cl)cc1Cl (stereo not given),inactive
16,O=C(Nc1ccc(S(=O)(=O)N2CCc3ccccc32)cc1)c1ccco1,active: 20.6 µM
17,COc1ccc2occ(C(C)=O)c2c1,inactive
18,COCCn1c(SCC(=O)Nc2cc(C)on2)nc2c(c1=O)SCC2,inactive
19,CCC(O)(CC)C(=O)N(Nc1ccc(C)cc1)c1ccc(C)cc1,inactive
20,COc1ccc(C(c2nnnn2CC2CCCO2)N2CCN(c3cccc(C)c3C)CC2)cc1 (stereo not given),"inconclusive: 20.6 µM [inhibitor, single point]"
21,CCC(C)Sc1ccc([C@H]2N[C@@](Cc3ccccc3)(C(=O)OC)[C@H]3C(=O)N(CC)C(=O)[C@@H]23)cc1 (stereo not given in full),"inconclusive: 29.1 µM [inhibitor, single point]"
22,CC(=O)c1ccc(NC(=O)C(C)n2c3ccccc3c3nc(=O)cc(C)n32)cc1 (stereo not given),"inconclusive: 9.2 µM [inhibitor, partial curve]"
23,COc1cccc(N2C(=O)C(O)=C(C(C)=O)C2c2ccc(OC)c(OC)c2)c1 (stereo not given),"inconclusive: 29.1 µM [activator, single point]"
24,CC1CCc2c(C(=O)NCc3ccco3)csc2C1 (stereo not given),"inconclusive: 18.3 µM [activator, partial curve]"

row,SMILES,Potency
1,Cc1nn(Cc2ccccc2Cl)c(C)c1C(=O)Nc1nnc(C2CC2)s1,inactive
2,CCOC(=O)c1cc2cc(OC)ccc2nc1C,"inconclusive: 23.1 µM [activator, single point]"
3,CCCCC(CC)CNC(=O)C(=O)c1ccccc1NC(C)=O (stereo not given),inactive
4,CCCCCCOc1ccc(/C=N/NC(=O)C2CC2)cc1,inactive
5,N#C/C(=C\c1cc(Br)ccc1F)C(=O)NC1CC1,"inconclusive: 5.17 µM [inhibitor, partial curve]"
6,Oc1ccccc1-c1cc(-c2ccc(Cl)cc2)n[nH]1,"inconclusive: 6.51 µM [activator, partial curve]"
7,COc1ccc(-c2noc(-c3ccccc3F)n2)cc1,"inconclusive: 2.31 µM [activator, full curve]"
8,O=C(NCCN1CCN(c2ccccc2)CC1)c1cccn2c(=O)c3cc(Cl)ccc3nc12,inactive
9,COc1ccccc1C(=O)NNC(=O)C(=O)Nc1ccc(C)cc1,inactive
10,Cc1ccccc1COc1ccc(/C=C(\C#N)C(N)=O)cc1,"inconclusive: 29.1 µM [activator, single point]"
11,CC1(C)NC(=O)N(CC(=O)Nc2ccc(-n3cnnn3)cc2)C1=O,"inconclusive: 6.51 µM [inhibitor, partial curve, poor fit]"
12,COCCCn1c(N)c(-c2nc3ccccc3n2C)c2nc3ccccc3nc21,"inconclusive: 1.3 µM [inhibitor, full curve]"
13,CCOC(=O)[C@H]1[C@H]2COc3cc(OC)ccc3[C@@H]2N2C(=O)[C@@H](CO)NC(=O)[C@@]12C,inactive
14,COc1ccc(CN(C2CCCC2)S(=O)(=O)c2ccc(-n3cnnn3)c(OC)c2)cc1OC,"inconclusive: 29.1 µM [inhibitor, single point]"
15,COc1ccc(CCN2CC(C(=O)OCC(=O)NC(C)c3cccc(Cl)c3)CC2=O)cc1OC (stereo not given),inactive
16,CCC(OC(=O)c1nsc(Cl)c1Cl)C(=O)NCc1cccs1 (stereo not given),inactive
17,CN(CC(=O)Nc1ccccc1Cl)CC(=O)Nc1sc2c(c1C(N)=O)CCC2,active: 4.61 µM
18,CC(O)CNc1ncnc2cc(-c3ccc(F)cc3)sc12 (stereo not given),"inconclusive: 14.6 µM [activator, partial curve]"
19,Cc1cc(C(=O)CSc2nnnn2-c2ccc(O)cc2)c(C)n1Cc1ccc2c(c1)OCO2,active: 18.4 µM
20,Cc1ccccc1-c1ccc(C(=O)Nc2cccc(F)c2)o1,"inconclusive: 6.51 µM [activator, partial curve, poor fit]"
21,Cc1c(C(=O)NC2CCCc3ccccc32)oc2ccc(S(=O)(=O)N3CCCCC3)cc12 (stereo not given),"inconclusive: 4.11 µM [inhibitor, partial curve, poor fit]"
22,Cc1cc(N)n(-c2ccc(S(N)(=O)=O)cc2[N+](=O)[O-])n1,inactive

# In the list so far, two contain a CF3 group:
row,SMILES,Potency
2,Cc1cccc(NC(=O)c2cccc(C(F)(F)F)c2)c1,"inconclusive: 16.4 µM [activator, partial curve]"
14,COCC1CCN(C(=O)C2CCC(=O)N(Cc3cccc(C(F)(F)F)c3)C2)CC1 (stereo not given),"inconclusive: 0.058 µM [inhibitor, partial curve, poor fit]"
